Here are results for one sequence from paper PMC4535883, “A Single-Strand Annealing Protein Clamps DNA to Detect and Secure Homology”.

The exact form of at least one protein or probe is not confirmed. The comparison behind a weaker result is the experiment's own reference, which may not be listed here. Where a protein sequence is shown, tags need not be part of it.

The target in this data set is T1, Redβ (single-strand annealing protein) (bacteriophage lambda) (UniProt P03698).
T1 sequence (looked up, limits assumed): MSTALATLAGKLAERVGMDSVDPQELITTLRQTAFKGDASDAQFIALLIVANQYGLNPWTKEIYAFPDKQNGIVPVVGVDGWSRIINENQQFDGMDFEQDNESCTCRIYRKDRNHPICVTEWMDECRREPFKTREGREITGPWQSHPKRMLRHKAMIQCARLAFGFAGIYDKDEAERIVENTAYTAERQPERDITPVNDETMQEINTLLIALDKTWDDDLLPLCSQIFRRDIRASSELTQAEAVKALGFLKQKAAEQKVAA
Description: EMSA. The note with it: 1 nM ssDNA, broad smeared shift at 158 nM Redβ and above; optical tweezers at 29.2 °C; recombinant protein; label: Atto 565 (5'); single-stranded DNA. A general note: In EMSA bound probe runs differently from free probe, usually more slowly.

As for “CTTCCACTTTCATCGTCTTTCAGTTCTCTT [ssDNA PAGE 30 b]”, the binding result is listed as “binds more weakly”.
